{"sequences": {"note": "The chains behind the UniProt entries cited, without tags or fusion partners. Where a name states a change or a piece, a line headed by the entry shows the natural chain unless it says otherwise.", "UniProt P01019": "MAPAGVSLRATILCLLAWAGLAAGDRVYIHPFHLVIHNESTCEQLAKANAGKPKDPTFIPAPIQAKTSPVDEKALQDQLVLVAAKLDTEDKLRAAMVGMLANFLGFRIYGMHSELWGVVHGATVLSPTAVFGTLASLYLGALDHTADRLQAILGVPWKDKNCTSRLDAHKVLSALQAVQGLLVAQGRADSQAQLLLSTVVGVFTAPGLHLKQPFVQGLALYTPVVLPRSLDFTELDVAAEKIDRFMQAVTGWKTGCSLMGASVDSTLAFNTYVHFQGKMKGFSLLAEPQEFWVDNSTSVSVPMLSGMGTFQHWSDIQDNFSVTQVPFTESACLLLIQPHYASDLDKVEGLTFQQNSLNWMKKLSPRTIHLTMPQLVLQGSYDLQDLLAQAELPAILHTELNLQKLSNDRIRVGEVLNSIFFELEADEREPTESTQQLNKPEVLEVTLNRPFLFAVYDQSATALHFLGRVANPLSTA"}, "source": "patent US12433510B2", "about": "“Methods and systems for improved collection of interstitial fluid” (Georgia Tech Research Corporation, priority 2017, dated 2025)", "test": "High-resolution metabolomics (LC-MS): prevalence of biomarkers in plasma, ISF and suction blister fluid", "key": {"[1]": {"details": "biomarkers uniquely or predominately in ISF, 20 matched samples, ISF"}, "[2]": {"details": "biomarkers uniquely or predominately in ISF, 20 matched samples, SBF"}, "[3]": {"details": "biomarkers uniquely or predominately in ISF, 20 matched samples, plasma"}, "[4]": {"details": "prevalence among 20 samples, plasma from venipuncture"}, "[5]": {"details": "prevalence among 20 samples, suction blister fluid"}, "[6]": {"details": "selected clinically relevant biomarkers, 20 matched samples, ISF"}, "[7]": {"details": "selected clinically relevant biomarkers, 20 matched samples, SBF"}, "[8]": {"details": "selected clinically relevant biomarkers, 20 matched samples, plasma"}}, "note": "Where two headings read alike, the source gives them in different places.", "data": [{"molecule": "CCCCCCCCCCCCCCC(=O)O", "note": "[Pentadecanoic acid]", "values": [{"measurement": "Prevalence of biomarker, ISF", "setting": "[1]", "value": 100, "unit": "%"}, {"measurement": "Prevalence of biomarker, SBF", "setting": "[2]", "value": 0, "unit": "%"}, {"measurement": "Prevalence of biomarker, Plasma", "setting": "[3]", "value": 10, "unit": "%"}]}, {"molecule": "C=C(OP(=O)(O)O)C(=O)O", "note": "[Phosphoenolpyruvic acid]", "values": [{"measurement": "Prevalence of biomarker, Plasma", "setting": "[4]", "value": 5, "unit": "%"}, {"measurement": "Prevalence of biomarker, SBF", "setting": "[5]", "value": 100, "unit": "%"}]}, {"molecule": "NCc1[nH]cc(CCC(=O)O)c1CC(=O)O", "note": "[Porphobilinogen]", "values": [{"measurement": "Prevalence of biomarker, ISF", "setting": "[1]", "value": 95, "unit": "%"}, {"measurement": "Prevalence of biomarker, SBF", "setting": "[2]", "value": 20, "unit": "%"}, {"measurement": "Prevalence of biomarker, Plasma", "setting": "[3]", "value": 10, "unit": "%"}]}, {"molecule": "CCCCCCCC[C@H]1CCC[C@@H]1CCCCCCC(=O)O", "note": "[Prostanoic acid]", "values": [{"measurement": "Prevalence of biomarker, ISF", "setting": "[1]", "value": 85, "unit": "%"}, {"measurement": "Prevalence of biomarker, SBF", "setting": "[2]", "value": 55, "unit": "%"}, {"measurement": "Prevalence of biomarker, Plasma", "setting": "[3]", "value": 5, "unit": "%"}]}, {"molecule": "CC[C@@H](O)/C=C/C=C\\C/C=C\\C/C=C\\C=C\\[C@@H](O)CCCC(=O)O", "note": "[Respolvin E2]", "values": [{"measurement": "Prevalence of biomarker, ISF", "setting": "[6]", "value": 100, "unit": "%"}, {"measurement": "Prevalence of biomarker, SBF", "setting": "[7]", "value": 75, "unit": "%"}, {"measurement": "Prevalence of biomarker, Plasma", "setting": "[8]", "value": 100, "unit": "%"}]}, {"molecule": "C[C@H](O)[C@H](O)[C@@H](O)[C@@H](O)C=O", "note": "[Rhamnose]", "values": [{"measurement": "Prevalence of biomarker, Plasma", "setting": "[4]", "value": 10, "unit": "%"}, {"measurement": "Prevalence of biomarker, SBF", "setting": "[5]", "value": 25, "unit": "%"}]}, {"molecule": "Nc1ncnc2c1ncn2[C@@H]1O[C@H](CSCC[C@H](N)C(=O)O)[C@@H](O)[C@H]1O", "note": "[S-Adenosylhomocysteine]", "values": [{"measurement": "Prevalence of biomarker, ISF", "setting": "metabolites unique to SBF, 20 samples, ISF", "value": 0, "unit": "%"}, {"measurement": "Prevalence of biomarker, SBF", "setting": "metabolites unique to SBF, 20 samples, SBF", "value": 100, "unit": "%"}, {"measurement": "Prevalence of biomarker, Plasma", "setting": "metabolites unique to SBF, 20 samples, plasma", "value": 20, "unit": "%"}]}, {"molecule": "CCCCCCCCCCCCC/C=C/[C@@H](O)[C@@H](N)CO", "note": "[Sphingosine]", "values": [{"measurement": "Prevalence of biomarker, ISF", "setting": "[1]", "value": 100, "unit": "%"}, {"measurement": "Prevalence of biomarker, SBF", "setting": "[2]", "value": 50, "unit": "%"}, {"measurement": "Prevalence of biomarker, Plasma", "setting": "[3]", "value": 10, "unit": "%"}, {"measurement": "Prevalence of biomarker, Plasma", "setting": "[4]", "value": 10, "unit": "%"}, {"measurement": "Prevalence of biomarker, SBF", "setting": "[5]", "value": 50, "unit": "%"}, {"measurement": "Prevalence of biomarker, ISF", "setting": "[6]", "value": 100, "unit": "%"}, {"measurement": "Prevalence of biomarker, SBF", "setting": "[7]", "value": 50, "unit": "%"}, {"measurement": "Prevalence of biomarker, Plasma", "setting": "[8]", "value": 10, "unit": "%"}]}, {"molecule": "OC[C@H]1O[C@H](OC[C@H]2O[C@H](OC[C@H]3O[C@H](O[C@]4(CO)O[C@H](CO)[C@@H](O)[C@@H]4O)[C@H](O)[C@@H](O)[C@@H]3O)[C@H](O)[C@@H](O)[C@H]2O)[C@H](O)[C@@H](O)[C@H]1O", "note": "[Stachyose]", "values": [{"measurement": "Prevalence of biomarker, Plasma", "setting": "[4]", "value": 10, "unit": "%"}, {"measurement": "Prevalence of biomarker, SBF", "setting": "[5]", "value": 60, "unit": "%"}]}, {"molecule": "CCCCCCCCCCCCCCCCCC(=O)O", "note": "[Stearic acid]", "values": [{"measurement": "Prevalence of biomarker, ISF", "setting": "[6]", "value": 100, "unit": "%"}, {"measurement": "Prevalence of biomarker, SBF", "setting": "[7]", "value": 15, "unit": "%"}, {"measurement": "Prevalence of biomarker, Plasma", "setting": "[8]", "value": 75, "unit": "%"}]}, {"molecule": "O=C(O)CCC(=O)N[C@@H](CCO)C(=O)O", "note": "[Succinylhomoserine]", "values": [{"measurement": "Prevalence of biomarker, Plasma", "setting": "[4]", "value": 0, "unit": "%"}, {"measurement": "Prevalence of biomarker, SBF", "setting": "[5]", "value": 75, "unit": "%"}]}, {"molecule": "C[C@H](CCC(=O)NCCS(=O)(=O)O)[C@H]1CC[C@H]2[C@@H]3CC[C@@H]4C[C@H](O)CC[C@]4(C)[C@H]3C[C@H](O)[C@]12C", "note": "[Taurodeoxycholic acid]", "values": [{"measurement": "Prevalence of biomarker, ISF", "setting": "[6]", "value": 50, "unit": "%"}, {"measurement": "Prevalence of biomarker, SBF", "setting": "[7]", "value": 100, "unit": "%"}, {"measurement": "Prevalence of biomarker, Plasma", "setting": "[8]", "value": 100, "unit": "%"}]}, {"molecule": "Nc1nc2c(c(=O)[nH]1)NC(CNc1ccc(C(=O)N[C@@H](CCC(=O)O)C(=O)O)cc1)CN2", "note": "(stereo partly shown) [Tetrahydrofolic acid]", "values": [{"measurement": "Prevalence of biomarker, ISF", "setting": "[6]", "value": 60, "unit": "%"}, {"measurement": "Prevalence of biomarker, SBF", "setting": "[7]", "value": 30, "unit": "%"}, {"measurement": "Prevalence of biomarker, Plasma", "setting": "[8]", "value": 40, "unit": "%"}]}, {"molecule": "CCC[CH2][Sn]([Cl])([CH2]CCC)[CH2]CCC", "note": "[Tributyltin chloride]", "values": [{"measurement": "Prevalence of biomarker, ISF", "value": 100, "unit": "%"}, {"measurement": "Prevalence of biomarker, Plasma", "value": 10, "unit": "%"}, {"measurement": "Prevalence of biomarker, SBF", "value": 10, "unit": "%"}]}, {"molecule": "NC(N)=O", "note": "[Urea]", "values": [{"measurement": "Prevalence of biomarker, ISF", "setting": "[6]", "value": 100, "unit": "%"}, {"measurement": "Prevalence of biomarker, SBF", "setting": "[7]", "value": 100, "unit": "%"}, {"measurement": "Prevalence of biomarker, Plasma", "setting": "[8]", "value": 100, "unit": "%"}]}, {"molecule": "O=c1[nH]c(=O)c2[nH]c(=O)[nH]c2[nH]1", "note": "[Uric acid]", "values": [{"measurement": "Prevalence of biomarker, ISF", "setting": "[6]", "value": 100, "unit": "%"}, {"measurement": "Prevalence of biomarker, SBF", "setting": "[7]", "value": 100, "unit": "%"}, {"measurement": "Prevalence of biomarker, Plasma", "setting": "[8]", "value": 100, "unit": "%"}]}, {"molecule": "O=c1ccn([C@@H]2O[C@H](CO)[C@@H](O)[C@H]2O)c(=O)[nH]1", "note": "[Uridine]", "values": [{"measurement": "Prevalence of biomarker, ISF", "setting": "[6]", "value": 100, "unit": "%"}, {"measurement": "Prevalence of biomarker, SBF", "setting": "[7]", "value": 100, "unit": "%"}, {"measurement": "Prevalence of biomarker, Plasma", "setting": "[8]", "value": 100, "unit": "%"}]}, {"molecule": "O=C(O)/C=C/c1c[nH]cn1", "note": "[Urocanic acid]", "values": [{"measurement": "Prevalence of biomarker, ISF", "value": 100, "unit": "%"}, {"measurement": "Prevalence of biomarker, Plasma", "value": 0, "unit": "%"}, {"measurement": "Prevalence of biomarker, SBF", "value": 100, "unit": "%"}]}, {"molecule": "O=c1[nH]c(=O)c2[nH]cnc2[nH]1", "note": "[Xanthine]", "values": [{"measurement": "Prevalence of biomarker, ISF", "setting": "[6]", "value": 90, "unit": "%"}, {"measurement": "Prevalence of biomarker, SBF", "setting": "[7]", "value": 100, "unit": "%"}, {"measurement": "Prevalence of biomarker, Plasma", "setting": "[8]", "value": 25, "unit": "%"}]}, {"molecule": "Angiotensin (5-8) (IHPF; Angiotensin-1; UniProt P01019 29-32, looked up, fragment)", "values": [{"measurement": "Prevalence of biomarker, ISF", "setting": "[1]", "value": 100, "unit": "%"}, {"measurement": "Prevalence of biomarker, SBF", "setting": "[2]", "value": 5, "unit": "%"}, {"measurement": "Prevalence of biomarker, Plasma", "setting": "[3]", "value": 5, "unit": "%"}]}, {"molecule": "Glycogen", "values": [{"measurement": "Prevalence of biomarker, ISF", "setting": "[1]", "value": 100, "unit": "%"}, {"measurement": "Prevalence of biomarker, SBF", "setting": "[2]", "value": 60, "unit": "%"}, {"measurement": "Prevalence of biomarker, Plasma", "setting": "[3]", "value": 10, "unit": "%"}]}, {"molecule": "Tocopherol", "values": [{"measurement": "Prevalence of biomarker, ISF", "setting": "prevalence among 20 samples, ISF from MN treatment", "value": 100, "unit": "%"}, {"measurement": "Prevalence of biomarker, Plasma", "setting": "[4]", "value": 5, "unit": "%"}, {"measurement": "Prevalence of biomarker, SBF", "setting": "[5]", "value": 0, "unit": "%"}]}]}
